These are yes or no findings as the source states them, for the method shown.
How the values were obtained:
Macaca TIM-3 (Macaca) [1] = test: ELISA
Macaca TIM-3 (Macaca) [2] = test: ELISA on Macaca TIM-3, OD450 against Log[nM] of antibody

- binding (Macaca TIM-3 (Macaca) [1]): no binding
B1: humanized anti-TIM-3 antibody ab6 (antibody, IgG4, V domains shown)
VH: EVQLVESGGGLVKPGGSLRLSCAASGFTFSDYYMAWVRQAPGKGLEWVANINYDGSNTYYLDSLKSRFTISRDNAKNSLYLQMNSLRAEDTAVYYCARGLYYYGGNYFAYWGQGTLVTVSS
VL: DIQMTQSPSSLSASVGDRVTITCHASQGISSNIGWLQQKPGKAFKGLIYQGSNLEDGVPSRFSGSGSGADYTLTISSLQPEDFATYYCVQFAQFPPTFGQGTKLEIK
- binding (Macaca TIM-3 (Macaca) [2]): no binding (tested: Log[nM] about 1.8 (about 60 nM))

From patent US20210269521A1
